pIC50: −log10 of the molar value. The structures given here were assigned with low confidence; some may be wrong.
How the values were obtained:
[1] = biological target: biotinylated truncated STAT6 (123-632)-avi (Homo sapiens, UniProt P42226); experiment: Homogenous Time-Resolved Fluorescence (HTRF) binding assay; conditions: read-out: STAT6 HTRF: Average IC50; 0.15 nM biotinylated truncated STAT6 (123-632)-avi, 20 nM fluorescein-labeled probe, 30 minutes at room temperature
Experimental: Example 1. Homogenous Time-Resolved Fluorescence (HTRF) Binding Assay
HTRF binding assays were performed using 0.15 nM biotinylated truncated STAT6 (123-632)-avi purified from E. coli, 1× Streptavidin-terbium (CisBio) prepared by mixing SA-Tb in PPI detection buffer (CisBio), 20 nM proprietary fluorescein-labeled probe, and test compounds in assay buffer consisting of 50 mM HEPES-Na pH 7.5, 100 mM NaCl, 1 mM EDTA, 2 mM DTT, 0.1% Tween-20 with a final volume of 20 uL. Compound stocks were dissolved at 10 mM in 100% DMSO and 11 point titration with 3 fold serial dilution was performed in white, opaque 384 well microplates. Reaction plates were incubated at room temperature for 30 minutes. Plates were centrifuged at low rpm for 5 mins, and the ratio of fluorescence intensities were measured at emission wavelengths for fluorescein acceptor (520 nm) and terbium donor (495 nm) on Envision Plate reader. % Inhibition was calculated from the 520/495 ratio generated by using proprietary positive control compound for 100% inhibition and DMSO only reactions for 0% inhibition. Data was processed and dose response curves were generated using GraphPad Prism to determine the concentration required for inhibiting 50% of the HTRF signal (IC50).

The chains behind the UniProt entries cited, without tags or fusion partners. Residues count along the entry.
UniProt P42226, 123-632 limits assumed: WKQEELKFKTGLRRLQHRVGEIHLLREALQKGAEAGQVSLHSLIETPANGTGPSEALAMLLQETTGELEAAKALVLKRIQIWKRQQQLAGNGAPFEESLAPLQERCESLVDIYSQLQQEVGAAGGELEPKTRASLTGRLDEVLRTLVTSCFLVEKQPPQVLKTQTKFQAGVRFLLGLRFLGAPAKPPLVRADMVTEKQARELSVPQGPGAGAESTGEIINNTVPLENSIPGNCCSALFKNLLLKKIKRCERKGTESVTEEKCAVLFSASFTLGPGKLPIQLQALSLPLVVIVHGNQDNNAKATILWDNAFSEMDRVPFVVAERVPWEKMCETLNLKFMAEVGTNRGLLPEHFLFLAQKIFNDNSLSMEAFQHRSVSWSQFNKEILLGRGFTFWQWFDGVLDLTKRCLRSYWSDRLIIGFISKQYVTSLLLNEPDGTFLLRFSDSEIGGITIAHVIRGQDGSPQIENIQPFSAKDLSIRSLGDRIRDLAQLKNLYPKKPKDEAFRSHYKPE

[2] = test system: Phosphorylation of STAT6 in human A549 cells; experiment: Phosphorylated STAT6 (pSTAT6) flow cytometry assay in human A549 cells; conditions: read-out: STAT6 IL4 pSTAT6 assay in A549 cells: Average IC50
From the text: Example 3. Phosphorylated STAT6 (pSTAT6) Flow Cytometry Assay in Human A549 Cells
Phosphorylation of STAT6 in human A549 cells was quantitatively measured using flow cytometry technology.

CNCc1cc(C2=CCCN(C(=O)CCn3ccnn3)C2)cc2cc(C(=O)N(C)C)oc12 [Example I-203]
pIC50 [1]: 6.00 to 7.00
pIC50 [2]: 6.00 to 7.00
